Results as given in US20190022162A1, “COMBINATION ANTICANCER ENDOWED WITH ANTITUMOR ACTIVITY, COMPRISING ALKALOIDS OF CHELIDONIUM MAJUS” (International Society for Drug Development S.R.L., priority 2015, published 2019).
For some assays here: At least one compound was matched to its structure with a doubt left. Some results were stated once for a whole list of compounds, not compound by compound.

Experiments:
[1] = system: MIA PaCa-2 pancreatic cancer cell line; test: Cell counting (Trypan blue, Neubauer chamber), MIA PaCa-2 cells; format: cell-based; conditions: Ber 10 μM, 48 h
Procedure: (§1) The MIA PaCa-2 cells were cultivated in T25 flasks and treated with the agents after reaching a confluence of 90%. After a 48 hours treatment, the cells were detached with trypsin-EDTA and suspended in medium consisting of 50% DMEM and 50% Trypan blue. The number of viable cells after each treatment was estimated by using the Neubauer counting chamber, excluding those cells which turned out positive to Trypan blue. At least three counts were made for each treatment.
The percentage of viable cells relative to the control was determined by the ratio between the number of treated cells and the number of untreated cells.

U343 (glioblastoma) = test: Cell counting (Trypan blue, Neubauer chamber), U343 cells; format: cell-based; conditions: direct administration
Procedure: as §1, with “U343 cells and the HDF” for “MIA PaCa-2”, “After” for “After a”, “hours of” for “hours”, “excluding” for “excluding those”, “cells” for “cells which turned out”, “countings” for “counts”
The percentage of viable cells compared to the control was determined by the ratio between the number of treated cells and the number of untreated cells.

Row | Structure (SMILES) | percentage of viable cells relative to the control [1] | variation in the percentage of viable U343 cells (U343 (glioblastoma))
1 | COc1ccc2cc3[n+](cc2c1OC)CCc1cc2c(cc1-3)OCO2 [Berberine, berberine] | more than 30% | –
2 | Cn1nnc2c(C(N)=O)ncn2c1=O [temozolomide, reference compound] | – | does not cause significant variations
